Results are given in words; binding and its absence hold for the method and conditions named. In cells and extracts the contact can be indirect. Here binding means that the protein was enriched with, or labelled near, the bait; the list need not be complete. Where a sequence is shown, tags or fusion partners need not be part of it.

Here are results for three molecules from doi:10.1101/2022.03.20.485012.

For the assay, the target named is T1, FLAG-STING (mouse STING) (mouse) (UniProt Q3TBT3).
T1 sequence: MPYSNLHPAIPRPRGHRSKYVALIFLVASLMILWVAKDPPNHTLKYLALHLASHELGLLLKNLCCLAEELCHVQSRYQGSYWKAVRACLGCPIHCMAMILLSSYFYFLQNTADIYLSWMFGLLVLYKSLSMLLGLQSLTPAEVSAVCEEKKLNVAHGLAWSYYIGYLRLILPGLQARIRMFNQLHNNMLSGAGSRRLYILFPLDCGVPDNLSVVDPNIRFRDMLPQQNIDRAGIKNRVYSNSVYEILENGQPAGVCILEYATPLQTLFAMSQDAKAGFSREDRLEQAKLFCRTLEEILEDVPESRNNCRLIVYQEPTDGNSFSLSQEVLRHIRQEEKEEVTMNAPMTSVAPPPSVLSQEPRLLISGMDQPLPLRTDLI
Description: affinity purification with mass spectrometry.

B1: Vps4a (protein, UniProt Q8VEJ9 1-437)
chain: MTTSTLQKAIDLVTKATEEDKAKNYEEALRLYQHAVEYFLHAIKYEAHSDKAKESIRAKCMQYLDRAEKLKDYLRNKEKHGKKPVKENQSEGKGSDSDSEGDNPEKKKLQEQLMGAVVMEKPNIRWNDVAGLEGAKEALKEAVILPIKFPHLFTGKRTPWRGILLFGPPGTGKSYLAKAVATEANNSTFFSVSSSDLMSKWLGESEKLVKNLFELARQHKPSIIFIDEVDSLCGSRNENESEAARRIKTEFLVQMQGVGNNNDGTLVLGATNIPWVLDSAIRRRFEKRIYIPLPEEAARAQMFRLHLGSTPHNLTDANIHELARKTEGYSGADISIIVRDSLMQPVRKVQSATHFKKVCGPSRTNPSVMIDDLLTPCSPGDPGAIEMTWMDVPGDKLLEPVVCMSDMLRSLATTRPTVNADDLLKVKKFSEDFGQES
On to B1, for which the binding result is “binds”.

B2: Vps4b (protein, UniProt P46467 1-444)
chain: MASTNTNLQKAIDLASKAAQEDKAGNYEEALQLYQHAVQYFLHVVKYEAQGDKAKQSIRAKCTEYLDRAEKLKEYLKKKEKKPQKPVKEEQSGPVDEKGNDSDGEAESDDPEKKKLQNQLQGAIVIERPNVKWSDVAGLEGAKEALKEAVILPIKFPHLFTGKRTPWRGILLFGPPGTGKSYLAKAVATEANNSTFFSISSSDLVSKWLGESEKLVKNLFQLARENKPSIIFIDEIDSLCGSRSENESEAARRIKTEFLVQMQGVGVDNDGILVLGATNIPWVLDSAIRRRFEKRIYIPLPEAHARAAMFRLHLGSTQNSLTEADFQELGRKTDGYSGADISIIVRDALMQPVRKVQSATHFKKVRGPSRADPNCIVNDLLTPCSPGDPGAIEMTWMDVPGDKLLEPVVSMWDMLRSLSSTKPTVNEQDLLKLKKFTEDFGQEG
Turning to B2, the binding entry was “binds”.

B3: Tsg101 (protein, UniProt Q61187 1-391)
chain: MAVSESQLKKMMSKYKYRDLTVRQTVNVIAMYKDLKPVLDSYVFNDGSSRELVNLTGTIPVRYRGNIYNIPICLWLLDTYPYNPPICFVKPTSSMTIKTGKHVDANGKIYLPYLHDWKHPRSELLELIQIMIVIFGEEPPVFSRPTVSASYPPYTATGPPNTSYMPGMPSGISAYPSGYPPNPSGYPGCPYPPAGPYPATTSSQYPSQPPVTTVGPSRDGTISEDTIRASLISAVSDKLRWRMKEEMDGAQAELNALKRTEEDLKKGHQKLEEMVTRLDQEVAEVDKNIELLKKKDEELSSALEKMENQSENNDIDEVIIPTAPLYKQILNLYAEENAIEDTIFYLGEALRRGVIDLDVFLKHVRLLSRKQFQLRALMQKARKTAGLSDLY
Take B3: the binding entry is recorded as “binds”.
